The list shows a part of the results. The main result of the screen is listed elsewhere. These columns were measured beside it and carry no call. Compounds called inactive in the main read-out are mostly missing here. Words in brackets tell the shape of the fitted curve; partial curves, single points and poor fits give uncertain potencies.
Assay: qHTS Assay for Lipid Storage Modulators in Drosophila S3 Cells;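 for cell number change: cells counted by Cell Tracker Red CMTPX staining in the red channel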
Settings: BODIPY lipid droplet fluorescence, 18-24 h; for cell number change: measured here: cell count max response, cells fed with added oleic acid
Method in brief: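 Drosophila S3 cells got compounds at several concentrations plus oleic acid (400 uM solution). Laser-scanning cytometry with 488 nm excitation read lipid droplets at 500-530 nm and cells at 575-640 nm. Percent activity was relative to 20 uM Triacsin C.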

[1] = measured here: lipid fluorescence (Fed channel) AC50, cells fed with added oleic acid
[2] = measured here: cell number channel AC50, cells fed with added oleic acid

Row | Structure (SMILES) | cell number change [%] | AC50 [1] | AC50 [2]
1 | COC(=O)c1[nH]c2ccc(C)cc2c1NC(=O)CN1CCc2cc(OC)c(OC)cc2C1 | -17 | – | –
2 | COc1ccc(CC(=O)Nc2ccccc2NC(=O)Cc2ccc(OC)cc2)cc1 | – | 0.13 µM [rising, full curve, poor fit] | –
3 | Cc1ccc(C)c2[nH]c(=O)c(CCNC(=O)CC(C)C)cc12 | – | 0.082 µM [rising, full curve, poor fit] | 0.206 µM [rising, partial curve]
4 | N#CCCN(C(=O)CO/N=C/c1cccc([N+](=O)[O-])c1)c1ccccc1 | 50.7 | – | 16.4 µM [rising, single point]
5 | CC(C)(C)CN1CCNC(=O)C1CC(=O)N1CCC(C(=O)N2CCOCC2)CC1 (configuration not stated) | -6.27 | 0.366 µM [rising, single point] | –
6 | COc1ccc(N(Cc2ccco2)C(=O)c2ccccc2F)cc1OC | -1.04 | 29.1 µM [rising, single point] | –
7 | O=C(NCC1(c2ccccc2)CCOCC1)c1cccs1 | – | – | 0.00461 µM [rising, full curve, poor fit]
8 | COc1ccc(-c2[nH]ncc2C=O)cc1OC | -7.8 | – | 0.0731 µM [rising, full curve, poor fit]
9 | COc1ccc2[nH]c(=O)c(CN(Cc3ccc(C)cc3)Cc3nnnn3CC3CCCO3)cc2c1 (configuration not stated) | 3.31 | – | –
10 | C=CCNC(=O)c1ccccc1S(=O)c1ccccc1C#N (configuration not stated) | 19.4 | 7.31 µM [rising, partial curve, poor fit] | –
11 | Cc1nc2ccccn2c1C(=O)NN=C1C2CC3CC(C2)CC1C3 | 13.6 | – | –
12 | COc1cc2[nH]c(=O)n(CCC(=O)NC3CCN(Cc4ccccc4)CC3)c(=O)c2cc1OC | 1.46 | – | –
13 | Cc1ccc(OCC(=O)Nc2ccccc2C(N)=O)cc1 | 7.3 | – | –
14 | CC1CCCC(C)N1C(=O)CNCc1ccc2c(c1)OCO2 (configuration not stated) | 48.8 | 20.6 µM [rising, partial curve] | 23.1 µM [rising, partial curve]
15 | COC(=O)C(CC(C)C)NC(=O)CNC(=O)c1ccccc1C (configuration not stated) | 6.97 | 23.1 µM [falling, partial curve] | –
16 | COc1ccc(NC(=O)CCCNC(=O)Cn2cnc3sc4c(c3c2=O)CCCC4)c(OC)c1 | 10.7 | – | –
17 | CC(Sc1ccccc1)C(=O)Nc1ccccc1C(=O)N1CCOCC1 (configuration not stated) | -16.2 | 0.13 µM [falling, full curve] | –
18 | O=S(=O)(c1cccc(-c2csc(-c3cccnc3)n2)c1)N1CCOCC1 | – | – | 0.103 µM [rising, full curve]
19 | CCCCNC(=O)NC(C(=O)OC)C12CC3CC(CC(C3)C1)C2 (configuration not stated) | -22.2 | 1.64 µM [falling, full curve] | –
20 | COc1ccc(C2N(S(=O)(=O)c3ccccc3)CCN2S(=O)(=O)c2ccc(C)cc2)cc1 (configuration not stated) | – | – | 3.66 µM [rising, partial curve]
21 | COC(=O)c1c(NC(=O)c2cccs2)sc2c1CCC(C)C2 (configuration not stated) | 20.1 | 0.731 µM [rising, full curve, poor fit] | –

Row | Structure (SMILES) | cell number change [%] | AC50 [1] | AC50 [2]
22 | Cc1cccc(C)c1-n1nnnc1SCC(=O)N1CCNC1=O | 69 | – | 16.4 µM [rising, partial curve, poor fit]
23 | CNC(=O)c1c[nH]c2ccc(S(=O)(=O)Nc3cccc(Cl)c3C)cc2c1=O | -17.2 | 29.1 µM [falling, single point] | –
24 | CC(C)NC(=S)n1cc(C(=O)c2cc(Cl)cc(Cl)c2O)cn1 | -11.8 | 2.51 µM [falling, partial curve] | –
25 | O=C(NCc1ccncc1)c1cnccn1 | 4.45 | 6.51 µM [rising, single point] | –
26 | Cc1cccc(C[C@H](C(=O)O)N2C(=O)c3ccc(C(=O)O)cc3C2=O)c1 | -1.35 | 9.2 µM [falling, partial curve] | –
27 | Cn1c(=O)c2c(ncn2CC(=O)Nc2ccc(Cl)cc2Cl)n(C)c1=O | -7.58 | 1.84 µM [rising, full curve, poor fit] | –
28 | COCCSc1ccccc1C(=O)Nc1cccnc1 | 22.1 | – | –
29 | CC(C)(C)C(=O)Nc1ncc(C(F)(F)F)cc1Cl | -22.1 | – | –
30 | CCOc1cccc(=O)c2c(C)n(Cc3ccco3)c(C)c12 | -32.6 | – | 25.9 µM [falling, partial curve]
31 | CN(C)C1(CNC(=O)c2cccc(S(=O)(=O)NCc3ccccc3)c2)CCCCC1 | -11.1 | 0.082 µM [rising, full curve, poor fit] | –
32 | NNc1ccc(Cl)c(C(=O)O)c1 | -18.5 | 18.4 µM [falling, partial curve] | –
33 | CCOC(=O)CSc1nnc(-c2ccco2)n1-c1ccccc1 | -11.3 | – | 0.058 µM [falling, full curve, poor fit]
34 | Cc1ccc(NC(=O)CSCC(=O)Nc2ccccc2N2CCCCC2)cc1 | 73.5 | – | 2.59 µM [rising, full curve]
35 | CCOC(=O)c1sc2nc(C)nc(SC(C)C(=O)NC3CC3)c2c1C (configuration not stated) | -13 | 0.092 µM [falling, full curve, poor fit] | –
36 | Cc1cccc(N(CC(=O)NCc2ccc3c(c2)OCO3)C(=O)CCC(=O)Nc2ccccn2)c1 | -6.31 | 5.17 µM [rising, partial curve] | –
37 | O=C(CN1CCN(c2ccccc2F)CC1)Nc1nnc(C(F)(F)F)s1 | -3.28 | 1.16 µM [falling, single point] | –
38 | Cc1ccc(-c2nn3c(C)nnc3s2)cc1NC(=O)c1ccc(-c2ccc(Cl)cc2Cl)o1 | -62 | 5.17 µM [falling, full curve] | 5.17 µM [falling, full curve, poor fit]
39 | CCOc1ccc(CN(C)CC(=O)Nc2cc(C)c(C)cc2[N+](=O)[O-])cc1 | 24.7 | 29.1 µM [rising, single point] | –
40 | COc1ccccc1NC(=O)C1CCN(C(=O)c2ccco2)CC1 | 2.56 | 5.17 µM [rising, single point] | –
41 | COc1ccc(-c2cc3c(=O)n(CC(=O)Nc4ccc(Cl)cc4)ncn3n2)cc1 | -17.1 | 6.51 µM [rising, single point] | –

Copied from above: compounds 16–18
Row | Structure (SMILES) | cell number change [%] | AC50 [1] | AC50 [2]
16 | COc1ccc(NC(=O)CCCNC(=O)Cn2cnc3sc4c(c3c2=O)CCCC4)c(OC)c1 | 10.7 | – | –
17 | CC(Sc1ccccc1)C(=O)Nc1ccccc1C(=O)N1CCOCC1 (configuration not stated) | -16.2 | 0.13 µM [falling, full curve] | –
18 | O=S(=O)(c1cccc(-c2csc(-c3cccnc3)n2)c1)N1CCOCC1 | – | – | 0.103 µM [rising, full curve]
